According to the supplement of paper PMC12823440, “Inhibitors supercharge kinase turnover through native proteolytic circuits” (Nature, 2025):
Structures can show the parent of a compound that is named as a salt. This is one part of the list. The calls rarely recur for the same compound in another form.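 Kinases, fused to nanoluciferase, were expressed in K562 cells; luminescence was measured every 4 h from 2 to 18 h as percent of control (DMSO = 100%, positive control = 0%). A time point is decreased if signal falls significantly (2 sigma). Hits were called by the authors by a rule that is not shown; the count of time points alone does not decide it.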

Amino acid sequences for entries named in this document (tags omitted). A change or cut given only in a name is not applied to a line headed by its entry.
UniProt P49137, whole entry, looked up: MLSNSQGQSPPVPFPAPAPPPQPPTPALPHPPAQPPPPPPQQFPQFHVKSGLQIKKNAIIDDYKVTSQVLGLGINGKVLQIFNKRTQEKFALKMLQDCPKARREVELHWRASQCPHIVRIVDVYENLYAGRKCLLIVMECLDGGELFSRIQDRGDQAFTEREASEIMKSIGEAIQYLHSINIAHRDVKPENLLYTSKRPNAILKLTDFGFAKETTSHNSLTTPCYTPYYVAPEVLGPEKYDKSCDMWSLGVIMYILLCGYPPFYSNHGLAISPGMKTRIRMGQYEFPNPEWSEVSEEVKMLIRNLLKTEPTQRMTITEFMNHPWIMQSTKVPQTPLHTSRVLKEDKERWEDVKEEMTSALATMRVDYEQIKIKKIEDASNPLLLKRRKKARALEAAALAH
UniProt Q9BUB5: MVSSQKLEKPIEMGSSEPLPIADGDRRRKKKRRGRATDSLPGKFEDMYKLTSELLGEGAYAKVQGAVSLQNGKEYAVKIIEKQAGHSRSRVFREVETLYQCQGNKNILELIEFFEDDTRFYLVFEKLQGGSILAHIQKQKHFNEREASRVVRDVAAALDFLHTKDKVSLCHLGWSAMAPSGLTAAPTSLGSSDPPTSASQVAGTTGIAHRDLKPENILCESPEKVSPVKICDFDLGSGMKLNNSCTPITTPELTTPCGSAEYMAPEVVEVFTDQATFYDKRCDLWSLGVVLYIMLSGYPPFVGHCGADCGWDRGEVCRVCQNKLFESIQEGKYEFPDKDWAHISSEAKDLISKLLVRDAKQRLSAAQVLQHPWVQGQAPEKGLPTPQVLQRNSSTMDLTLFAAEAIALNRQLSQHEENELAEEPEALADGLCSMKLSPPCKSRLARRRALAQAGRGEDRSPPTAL
UniProt O96013: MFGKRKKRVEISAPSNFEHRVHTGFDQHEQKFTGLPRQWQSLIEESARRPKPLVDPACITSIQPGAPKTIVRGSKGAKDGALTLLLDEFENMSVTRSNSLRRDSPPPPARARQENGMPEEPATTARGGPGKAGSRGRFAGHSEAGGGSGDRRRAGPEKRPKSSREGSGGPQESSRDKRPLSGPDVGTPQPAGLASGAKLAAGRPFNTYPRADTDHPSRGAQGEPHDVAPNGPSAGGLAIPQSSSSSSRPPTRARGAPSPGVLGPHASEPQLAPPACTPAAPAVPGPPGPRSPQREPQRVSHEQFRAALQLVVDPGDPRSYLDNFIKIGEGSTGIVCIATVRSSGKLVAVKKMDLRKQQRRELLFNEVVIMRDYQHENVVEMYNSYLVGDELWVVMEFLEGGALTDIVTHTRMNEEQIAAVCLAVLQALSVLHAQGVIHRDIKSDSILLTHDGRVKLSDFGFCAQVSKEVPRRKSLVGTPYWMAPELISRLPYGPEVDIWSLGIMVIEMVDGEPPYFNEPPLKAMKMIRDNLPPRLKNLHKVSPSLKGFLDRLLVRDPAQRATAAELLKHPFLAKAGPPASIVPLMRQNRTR
UniProt Q96KB5: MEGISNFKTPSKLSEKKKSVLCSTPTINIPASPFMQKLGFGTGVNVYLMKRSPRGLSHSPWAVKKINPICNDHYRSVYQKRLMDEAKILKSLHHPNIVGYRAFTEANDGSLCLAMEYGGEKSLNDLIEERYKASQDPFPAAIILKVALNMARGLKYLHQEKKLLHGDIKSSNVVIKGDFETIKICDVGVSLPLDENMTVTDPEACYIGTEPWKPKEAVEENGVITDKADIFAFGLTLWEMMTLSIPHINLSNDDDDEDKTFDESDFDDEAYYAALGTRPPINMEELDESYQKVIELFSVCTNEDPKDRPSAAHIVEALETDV
UniProt P09619, whole entry: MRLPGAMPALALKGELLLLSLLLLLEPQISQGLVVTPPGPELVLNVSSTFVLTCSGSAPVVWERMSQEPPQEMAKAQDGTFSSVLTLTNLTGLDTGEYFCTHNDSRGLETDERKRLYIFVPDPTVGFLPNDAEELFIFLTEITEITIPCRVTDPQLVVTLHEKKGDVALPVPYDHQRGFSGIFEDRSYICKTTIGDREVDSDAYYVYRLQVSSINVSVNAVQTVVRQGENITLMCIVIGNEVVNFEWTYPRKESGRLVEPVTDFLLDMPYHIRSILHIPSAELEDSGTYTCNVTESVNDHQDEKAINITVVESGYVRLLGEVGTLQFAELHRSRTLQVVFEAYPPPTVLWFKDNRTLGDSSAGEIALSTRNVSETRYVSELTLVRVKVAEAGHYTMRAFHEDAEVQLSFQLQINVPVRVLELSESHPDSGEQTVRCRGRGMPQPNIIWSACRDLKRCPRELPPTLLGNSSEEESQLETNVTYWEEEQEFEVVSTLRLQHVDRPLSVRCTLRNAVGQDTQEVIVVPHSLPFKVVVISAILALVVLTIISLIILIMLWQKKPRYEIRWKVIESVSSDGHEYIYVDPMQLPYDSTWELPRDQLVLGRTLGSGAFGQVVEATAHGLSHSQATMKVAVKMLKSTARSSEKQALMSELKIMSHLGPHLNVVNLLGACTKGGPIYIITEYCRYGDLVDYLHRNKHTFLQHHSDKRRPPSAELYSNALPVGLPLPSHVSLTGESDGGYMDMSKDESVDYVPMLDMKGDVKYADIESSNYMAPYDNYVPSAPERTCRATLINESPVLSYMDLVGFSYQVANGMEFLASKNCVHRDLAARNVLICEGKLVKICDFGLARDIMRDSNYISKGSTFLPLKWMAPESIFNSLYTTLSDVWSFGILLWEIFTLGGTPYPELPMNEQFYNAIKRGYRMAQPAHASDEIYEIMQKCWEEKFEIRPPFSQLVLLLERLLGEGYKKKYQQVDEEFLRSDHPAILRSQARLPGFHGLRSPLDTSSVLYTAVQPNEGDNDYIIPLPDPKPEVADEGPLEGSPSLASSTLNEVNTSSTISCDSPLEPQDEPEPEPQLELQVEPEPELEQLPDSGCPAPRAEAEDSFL
UniProt Q9UBF8: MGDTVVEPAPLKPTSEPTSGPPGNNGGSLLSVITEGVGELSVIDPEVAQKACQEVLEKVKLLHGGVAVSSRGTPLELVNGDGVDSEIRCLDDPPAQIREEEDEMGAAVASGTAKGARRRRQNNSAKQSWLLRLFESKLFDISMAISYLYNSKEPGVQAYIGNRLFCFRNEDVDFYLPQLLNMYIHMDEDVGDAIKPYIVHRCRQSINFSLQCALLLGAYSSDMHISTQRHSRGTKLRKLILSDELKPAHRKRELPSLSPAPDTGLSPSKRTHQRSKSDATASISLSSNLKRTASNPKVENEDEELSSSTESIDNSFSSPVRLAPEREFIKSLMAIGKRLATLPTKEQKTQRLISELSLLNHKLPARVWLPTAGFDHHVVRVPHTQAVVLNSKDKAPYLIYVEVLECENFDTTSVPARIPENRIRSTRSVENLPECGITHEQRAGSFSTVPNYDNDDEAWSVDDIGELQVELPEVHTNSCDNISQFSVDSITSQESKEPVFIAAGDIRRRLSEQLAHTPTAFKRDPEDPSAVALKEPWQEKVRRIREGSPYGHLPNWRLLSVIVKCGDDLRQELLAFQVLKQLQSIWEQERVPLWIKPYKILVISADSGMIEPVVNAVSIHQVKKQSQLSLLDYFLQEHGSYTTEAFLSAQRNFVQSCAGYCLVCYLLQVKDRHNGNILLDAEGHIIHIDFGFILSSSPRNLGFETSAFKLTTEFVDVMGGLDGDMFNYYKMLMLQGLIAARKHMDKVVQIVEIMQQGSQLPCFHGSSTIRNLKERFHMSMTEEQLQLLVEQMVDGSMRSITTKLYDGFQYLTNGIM
UniProt Q05397, whole entry, looked up: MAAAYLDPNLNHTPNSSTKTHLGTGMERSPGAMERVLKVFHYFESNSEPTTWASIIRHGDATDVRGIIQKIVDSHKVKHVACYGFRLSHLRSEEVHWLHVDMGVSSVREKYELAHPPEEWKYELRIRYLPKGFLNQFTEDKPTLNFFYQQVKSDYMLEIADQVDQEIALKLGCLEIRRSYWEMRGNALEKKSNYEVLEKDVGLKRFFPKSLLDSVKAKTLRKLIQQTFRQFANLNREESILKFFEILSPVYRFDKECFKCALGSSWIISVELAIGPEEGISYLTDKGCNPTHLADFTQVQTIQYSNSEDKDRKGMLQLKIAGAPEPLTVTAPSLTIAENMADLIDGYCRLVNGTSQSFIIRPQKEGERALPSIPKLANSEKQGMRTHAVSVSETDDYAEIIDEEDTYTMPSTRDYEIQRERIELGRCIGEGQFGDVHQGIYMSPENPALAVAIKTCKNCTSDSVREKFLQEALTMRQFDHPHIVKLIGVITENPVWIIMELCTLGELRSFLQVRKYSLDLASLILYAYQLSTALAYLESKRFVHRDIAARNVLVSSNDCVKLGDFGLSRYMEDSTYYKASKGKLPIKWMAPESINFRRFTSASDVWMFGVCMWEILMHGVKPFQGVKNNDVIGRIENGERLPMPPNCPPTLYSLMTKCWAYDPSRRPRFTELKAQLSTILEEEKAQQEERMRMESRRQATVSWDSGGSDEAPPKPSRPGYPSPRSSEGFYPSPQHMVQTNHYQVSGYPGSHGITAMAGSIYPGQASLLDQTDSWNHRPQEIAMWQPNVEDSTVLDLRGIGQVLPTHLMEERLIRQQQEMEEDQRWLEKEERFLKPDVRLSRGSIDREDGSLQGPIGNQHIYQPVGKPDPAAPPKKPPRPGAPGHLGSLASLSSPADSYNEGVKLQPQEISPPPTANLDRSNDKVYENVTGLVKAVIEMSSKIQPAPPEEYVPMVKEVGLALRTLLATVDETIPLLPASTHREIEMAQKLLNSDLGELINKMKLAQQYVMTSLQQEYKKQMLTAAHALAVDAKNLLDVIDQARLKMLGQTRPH
UniProt Q14289, whole entry, looked up: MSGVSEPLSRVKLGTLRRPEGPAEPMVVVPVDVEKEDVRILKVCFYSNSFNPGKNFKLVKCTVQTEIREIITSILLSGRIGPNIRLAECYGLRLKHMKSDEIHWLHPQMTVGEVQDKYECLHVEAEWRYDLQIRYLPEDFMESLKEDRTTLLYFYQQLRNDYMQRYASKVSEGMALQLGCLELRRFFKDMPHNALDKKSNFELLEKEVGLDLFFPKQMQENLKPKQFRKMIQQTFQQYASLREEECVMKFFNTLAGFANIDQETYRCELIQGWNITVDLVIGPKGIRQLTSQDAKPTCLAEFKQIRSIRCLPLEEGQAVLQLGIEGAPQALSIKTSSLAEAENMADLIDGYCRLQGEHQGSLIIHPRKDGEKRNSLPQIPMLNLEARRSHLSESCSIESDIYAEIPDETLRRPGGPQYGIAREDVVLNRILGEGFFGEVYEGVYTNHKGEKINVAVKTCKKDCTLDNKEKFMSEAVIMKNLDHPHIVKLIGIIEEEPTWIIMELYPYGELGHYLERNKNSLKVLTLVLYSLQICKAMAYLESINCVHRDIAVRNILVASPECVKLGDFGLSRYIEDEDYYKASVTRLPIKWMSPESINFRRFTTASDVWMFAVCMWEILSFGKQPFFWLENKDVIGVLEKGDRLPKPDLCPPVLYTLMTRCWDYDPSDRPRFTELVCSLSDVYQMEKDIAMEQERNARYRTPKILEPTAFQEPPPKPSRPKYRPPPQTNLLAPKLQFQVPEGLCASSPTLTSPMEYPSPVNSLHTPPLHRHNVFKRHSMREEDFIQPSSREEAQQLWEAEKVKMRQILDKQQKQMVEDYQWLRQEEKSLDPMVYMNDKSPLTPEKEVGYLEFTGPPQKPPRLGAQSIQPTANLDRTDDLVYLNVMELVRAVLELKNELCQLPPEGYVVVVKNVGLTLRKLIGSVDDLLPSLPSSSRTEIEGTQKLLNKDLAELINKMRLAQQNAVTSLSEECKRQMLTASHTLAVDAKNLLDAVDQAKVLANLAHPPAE

Columns and labels:
Test in all cases: kinase-Nluc reporter destabilization hit call (1 = scored as downregulated) (binary); higher = compound decreases kinase abundance
Conditions in all cases: K562, 2-18 h
MAPK1 = MAPK1 (UniProt P28482)
MAPK4 = MAPK4 (UniProt P31152)
MAPKAPK2 = MAPKAPK2 (UniProt P49137)
MKNK1 = MKNK1 (UniProt Q9BUB5)
NTRK2 = NTRK2 (UniProt Q16620)
NTRK3 = NTRK3 (UniProt Q16288)
PAK4 = PAK4 (UniProt O96013)
PBK = PBK (UniProt Q96KB5)
PDGFRB = PDGFRB (UniProt P09619)
PDK1 = PDK1 (UniProt Q15118)
PDPK1 = PDPK1 (UniProt O15530)
PIK4CA = PIK4CA (UniProt P42356)
PIK4CB = PIK4CB (UniProt Q9UBF8)
PLK1 = PLK1 (UniProt P53350)
PRKAA1 = PRKAA1 (UniProt Q13131)
PRKCA = PRKCA (UniProt P17252)
PTK2 = PTK2 (UniProt Q05397)
PTK2B = PTK2B (UniProt Q14289)
RAF1 = RAF1 (UniProt P04049)
[1] = target: RAF1_S257L (clone: RAF1_mut) (UniProt P04049)

Measured: kinase-Nluc reporter destabilization hit call

CCCC(=O)Nc1ncnc2c1ncn2[C@@H]1O[C@@H]2COP(=O)(O)O[C@H]2[C@H]1OC(=O)CCC [Bucladesine (calcium)]
inactive: MAPK1; 10 µM 0 | MAPK4; 10 µM 0 | MAPKAPK2; 10 µM 0 | MKNK1; 10 µM 0 | NTRK2; 10 µM 0 | NTRK3; 10 µM 0 | PAK4; 10 µM 0 | PBK; 10 µM 0 | PDGFRB; 10 µM 0 | PDK1; 10 µM 0 | PDPK1; 10 µM 0 | PIK4CA; 10 µM 0 | PIK4CB; 10 µM 0 | PLK1; 10 µM 0 | PRKAA1; 10 µM 0 | PRKCA; 10 µM 0 | PTK2; 10 µM 0 | PTK2B; 10 µM 0 | RAF1; 10 µM 0 | [1]; 10 µM 0

CN1CCCN(C(=O)c2cccc(-c3ccc(/C=C4/C(=O)Nc5ccc(Cl)cc54)o3)c2)CC1
inactive: MAPK1; 2.5 µM 0 | MAPK4; 2.5 µM 0 | MAPKAPK2; 2.5 µM 0 | MKNK1; 2.5 µM 0 | NTRK2; 2.5 µM 0 | NTRK3; 2.5 µM 0 | PAK4; 2.5 µM 0 | PBK; 2.5 µM 0 | PDGFRB; 2.5 µM 0 | PDK1; 2.5 µM 0 | PDPK1; 2.5 µM 0 | PIK4CA; 2.5 µM 0 | PIK4CB; 2.5 µM 0 | PLK1; 2.5 µM 0 | PRKAA1; 2.5 µM 0 | PRKCA; 2.5 µM 0 | PTK2; 2.5 µM 0 | PTK2B; 2.5 µM 0 | RAF1; 2.5 µM 0 | [1]; 2.5 µM 0

N#CCNC(=O)c1ccc(-c2ccnc(Nc3ccc(N4CCOCC4)cc3)n2)cc1 [Momelotinib sulfate]
inactive: MAPK1; 10 µM 0 | MAPK4; 10 µM 0 | MAPKAPK2; 10 µM 0 | MKNK1; 10 µM 0 | NTRK2; 10 µM 0 | NTRK3; 10 µM 0 | PAK4; 10 µM 0 | PBK; 10 µM 0 | PDGFRB; 10 µM 0 | PDK1; 10 µM 0 | PDPK1; 10 µM 0 | PIK4CA; 10 µM 0 | PIK4CB; 10 µM 0 | PLK1; 10 µM 0 | PRKAA1; 10 µM 0 | PRKCA; 10 µM 0 | PTK2; 10 µM 0 | PTK2B; 10 µM 0 | RAF1; 10 µM 0 | [1]; 10 µM 0

N#CC[C@H](C1CCCC1)n1cc(-c2ncnc3[nH]ccc23)cn1 [Ruxolitinib]
inactive: MAPK1; 10 µM 0 | MAPK4; 10 µM 0 | MAPKAPK2; 10 µM 0 | MKNK1; 10 µM 0 | NTRK2; 10 µM 0 | PAK4; 10 µM 0 | PBK; 10 µM 0 | PDGFRB; 10 µM 0 | PDK1; 10 µM 0 | PDPK1; 10 µM 0 | PIK4CA; 10 µM 0 | PIK4CB; 10 µM 0 | PLK1; 10 µM 0 | PRKAA1; 10 µM 0 | PRKCA; 10 µM 0 | PTK2; 10 µM 0 | PTK2B; 10 µM 0 | RAF1; 10 µM 0 | [1]; 10 µM 0

O=C(c1ccc(F)c(F)c1Nc1ccc(I)cc1F)N1CC(O)([C@@H]2CCCCN2)C1 [Cobimetinib]
inactive: MAPK1; 10 µM 0 | MAPK4; 10 µM 0 | MAPKAPK2; 10 µM 0 | MKNK1; 10 µM 0 | NTRK2; 10 µM 0 | NTRK3; 10 µM 0 | PAK4; 10 µM 0 | PBK; 10 µM 0 | PDGFRB; 10 µM 0 | PDK1; 10 µM 0 | PDPK1; 10 µM 0 | PIK4CA; 10 µM 0 | PIK4CB; 10 µM 0 | PLK1; 10 µM 0 | PRKAA1; 10 µM 0 | PRKCA; 10 µM 0 | PTK2; 10 µM 0 | PTK2B; 10 µM 0
active: RAF1; 10 µM 1 | [1]; 10 µM 1

COC(=O)[C@H](CC(C)C)NC(=O)c1ccc(NC[C@@H](N)CS)cc1-c1cccc2ccccc12
inactive: MAPK1; 10 µM 0 | MAPK4; 10 µM 0 | MAPKAPK2; 10 µM 0 | MKNK1; 10 µM 0 | NTRK2; 10 µM 0 | NTRK3; 10 µM 0 | PAK4; 10 µM 0 | PBK; 10 µM 0 | PDGFRB; 10 µM 0 | PDK1; 10 µM 0 | PDPK1; 10 µM 0 | PIK4CA; 10 µM 0 | PIK4CB; 10 µM 0 | PLK1; 10 µM 0 | PRKAA1; 10 µM 0 | PRKCA; 10 µM 0 | PTK2; 10 µM 0 | PTK2B; 10 µM 0 | RAF1; 10 µM 0 | [1]; 10 µM 0

COc1ccc(S(=O)(=O)Nc2ccccc2CN(C)C/C=C/c2ccc(Cl)cc2)cc1 [KN-92 (phosphate)]
inactive: MAPK1; 2.5 µM 0 | MAPK4; 2.5 µM 0 | MAPKAPK2; 2.5 µM 0 | MKNK1; 2.5 µM 0 | NTRK2; 2.5 µM 0 | NTRK3; 2.5 µM 0 | PAK4; 2.5 µM 0 | PBK; 2.5 µM 0 | PDGFRB; 2.5 µM 0 | PDK1; 2.5 µM 0 | PDPK1; 2.5 µM 0 | PIK4CA; 2.5 µM 0 | PIK4CB; 2.5 µM 0 | PLK1; 2.5 µM 0 | PRKAA1; 2.5 µM 0 | PRKCA; 2.5 µM 0 | PTK2; 2.5 µM 0 | PTK2B; 2.5 µM 0 | RAF1; 2.5 µM 0 | [1]; 2.5 µM 0

N#CCNC(=O)c1ccc(-c2ccnc(Nc3ccc(N4CCOCC4)cc3)n2)cc1 [Momelotinib]
inactive: MAPK1; 10 µM 0 | MAPK4; 10 µM 0 | MAPKAPK2; 10 µM 0 | MKNK1; 10 µM 0 | NTRK2; 10 µM 0 | NTRK3; 10 µM 0 | PAK4; 10 µM 0 | PBK; 10 µM 0 | PDGFRB; 10 µM 0 | PDK1; 10 µM 0 | PDPK1; 10 µM 0 | PIK4CA; 10 µM 0 | PIK4CB; 10 µM 0 | PLK1; 10 µM 0 | PRKAA1; 10 µM 0 | PRKCA; 10 µM 0 | PTK2; 10 µM 0 | PTK2B; 10 µM 0 | RAF1; 10 µM 0 | [1]; 10 µM 0

COc1ccc(S(=O)(=O)N(CCO)c2ccccc2CN(C)C/C=C/c2ccc(Cl)cc2)cc1 [KN-93 (phosphate)]
inactive: MAPK1; 2.5 µM 0 | MAPK4; 2.5 µM 0 | MAPKAPK2; 2.5 µM 0 | MKNK1; 2.5 µM 0 | NTRK2; 2.5 µM 0 | NTRK3; 2.5 µM 0 | PAK4; 2.5 µM 0 | PBK; 2.5 µM 0 | PDGFRB; 2.5 µM 0 | PDK1; 2.5 µM 0 | PDPK1; 2.5 µM 0 | PIK4CA; 2.5 µM 0 | PIK4CB; 2.5 µM 0 | PLK1; 2.5 µM 0 | PRKAA1; 2.5 µM 0 | PRKCA; 2.5 µM 0 | PTK2; 2.5 µM 0 | PTK2B; 2.5 µM 0 | RAF1; 2.5 µM 0 | [1]; 2.5 µM 0

Cc1cccc(-c2[nH]c(CNc3ccccc3F)nc2-c2ccc3ncnn3c2)n1 [Vactosertib (Hydrochloride)]
inactive: MAPK1; 2.5 µM 0 | MAPK4; 2.5 µM 0 | MAPKAPK2; 2.5 µM 0 | MKNK1; 2.5 µM 0 | NTRK2; 2.5 µM 0 | PAK4; 2.5 µM 0 | PBK; 2.5 µM 0 | PDGFRB; 2.5 µM 0 | PDK1; 2.5 µM 0 | PDPK1; 2.5 µM 0 | PIK4CA; 2.5 µM 0 | PIK4CB; 2.5 µM 0 | PLK1; 2.5 µM 0 | PRKAA1; 2.5 µM 0 | PRKCA; 2.5 µM 0 | PTK2; 2.5 µM 0 | PTK2B; 2.5 µM 0 | RAF1; 2.5 µM 0 | [1]; 2.5 µM 0

CN(C)C/C=C/C(=O)Nc1cc2c(Nc3ccc(F)c(Cl)c3)ncnc2cc1O[C@H]1CCOC1 [Afatinib (dimaleate)]
inactive: MAPK1; 2.5 µM 0 | MAPK4; 2.5 µM 0 | MAPKAPK2; 2.5 µM 0 | MKNK1; 2.5 µM 0 | NTRK2; 2.5 µM 0 | NTRK3; 2.5 µM 0 | PAK4; 2.5 µM 0 | PBK; 2.5 µM 0 | PDGFRB; 2.5 µM 0 | PDK1; 2.5 µM 0 | PDPK1; 2.5 µM 0 | PIK4CA; 2.5 µM 0 | PIK4CB; 2.5 µM 0 | PLK1; 2.5 µM 0 | PRKAA1; 2.5 µM 0 | PRKCA; 2.5 µM 0 | PTK2; 2.5 µM 0 | PTK2B; 2.5 µM 0 | RAF1; 2.5 µM 0 | [1]; 2.5 µM 0

COc1ccc(S(=O)(=O)Nc2ccccc2CN(C)C/C=C/c2ccc(Cl)cc2)cc1 [KN-92 (hydrochloride)]
inactive: MAPK1; 2.5 µM 0 | MAPK4; 2.5 µM 0 | MAPKAPK2; 2.5 µM 0 | MKNK1; 2.5 µM 0 | NTRK2; 2.5 µM 0 | NTRK3; 2.5 µM 0 | PAK4; 2.5 µM 0 | PBK; 2.5 µM 0 | PDGFRB; 2.5 µM 0 | PDK1; 2.5 µM 0 | PDPK1; 2.5 µM 0 | PIK4CA; 2.5 µM 0 | PIK4CB; 2.5 µM 0 | PLK1; 2.5 µM 0 | PRKAA1; 2.5 µM 0 | PRKCA; 2.5 µM 0 | PTK2; 2.5 µM 0 | PTK2B; 2.5 µM 0 | RAF1; 2.5 µM 0 | [1]; 2.5 µM 0
